Results from patent US6589977B1, “Pyrrole derivatives and cell death inhibitors” (Sagami Chemical Research Center, priority 1999, dated 2003).
Some entries share one result that the patent states for a list of compounds.

System: cerebellar granule cells
Assay: Inhibition of SNP-induced death of cerebellar granule cells
Assay type: cell-based, rats
[1] = compound 10 μM added prior to SNP (100 μM), after 12 hours

SMILES	cells alive [1]	cells alive (compound 30 nM, SNP (100 μM), after 24 hours)
Cn1cc(-c2c[nH]c3ccccc23)c(-c2c[nH]c3ccccc23)c1 [Compound 1]	more than 95%	
Cc1cccc2c(-c3cn(C)cc3-c3c[nH]c4c(C)cccc34)c[nH]c12 [Compound 10]	more than 95%	
Cc1ccc2[nH]cc(-c3cn(C)cc3-c3c[nH]c4ccc(C)cc34)c2c1 [Compound 15]		more than 95%
